{
  "source": "paper PMC7819943",
  "about": "“Rice protein-binding microarrays: a tool to detect cis-acting elements near promoter regions in rice”",
  "note": "This is one part of the list.",
  "data": [
    {"biological_target": "T1, OsSMF1 (Oryza sativa, UniProt Q6ZLB0 1-436)", "T1 sequence": "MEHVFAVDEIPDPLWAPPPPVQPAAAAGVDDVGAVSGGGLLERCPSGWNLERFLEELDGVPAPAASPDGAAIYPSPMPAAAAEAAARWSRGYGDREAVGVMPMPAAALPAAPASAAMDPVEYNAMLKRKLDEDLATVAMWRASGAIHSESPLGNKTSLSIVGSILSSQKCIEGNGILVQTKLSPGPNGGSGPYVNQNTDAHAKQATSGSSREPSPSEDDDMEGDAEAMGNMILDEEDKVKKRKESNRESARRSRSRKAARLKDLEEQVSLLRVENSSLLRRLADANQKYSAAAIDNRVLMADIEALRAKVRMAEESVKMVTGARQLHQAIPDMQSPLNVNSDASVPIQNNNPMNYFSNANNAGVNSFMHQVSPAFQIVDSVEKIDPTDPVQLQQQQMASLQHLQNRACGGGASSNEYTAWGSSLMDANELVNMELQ", "test": "protein-binding microarray (RPBM); PBS, 2% BSA, 51.3 ng/ul salmon testes DNA, 50 uM zinc acetate, 200 nM TF, 25 C, 1 h; high values mean tight binding", "conditions": "protein: recombinant; tags: N-terminal polyhistidine and DsRed monomer fusion (pET32a); chain copies: 2; label: CyDye5-dUTP incorporated in the synthesized complementary strand; 3' TTTTT single-stranded linker to array surface; dsDNA, one strand shown", "procedure,_shortened": "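Ni–NTA purification followed expression in E. coli BL21-CodonPlus of transcription factors fused N-terminally to a polyhistidine tag and DsRed. At 200 nM in PBS with 2% BSA, salmon testes DNA and 50 µM zinc acetate, the protein was incubated for 1 h at 25 °C with a custom Agilent array that had been primer-extended with Cy5-dUTP and blocked with 2% BSA. After washing, the array was read on an Axon 4000B scanner. The binding signal is per-feature fluorescence intensity in arbitrary units.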", "values": [
      {"sequence": "ACTACGTTATGCATTTGTTTAAGAAAATTGTTAATTTCGACGGAGTCACCTAGTGCAG", "binding signal": "3260 fluorescence intensity (a.u.)"},
      {"sequence": "GAGCCTGCTTTGTTTTCTTAATTTGTCATGATCTTTCATCCGGAGTCACCTAGTGCAG", "binding signal": "3350 fluorescence intensity (a.u.)"},
      {"sequence": "TGTCCGGACTTGATGACGCCGCTGGCTCCATCACCGACAACGGAGTCACCTAGTGCAG", "binding signal": "5550 fluorescence intensity (a.u.)"},
      {"sequence": "AAACCCAAGCAAACCAGCAGCTACTAAGCAAAGCACAACCCGGAGTCACCTAGTGCAG", "binding signal": "33900 fluorescence intensity (a.u.)"},
      {"sequence": "CGACCCAGCAAAATCTTCTTCTCCCGAGACGAACCACCCGCGGAGTCACCTAGTGCAG", "binding signal": "25500 fluorescence intensity (a.u.)"},
      {"sequence": "GTGGCGCGCGCGCGCACGCACGCTGGGCGACACGCCACGCCGGAGTCACCTAGTGCAG", "binding signal": "4530 fluorescence intensity (a.u.)"},
      {"sequence": "GAAGCCCTAGCCTAGGAGTGAGAGGTCCCACGTCTTCCCCCGGAGTCACCTAGTGCAG", "binding signal": "3780 fluorescence intensity (a.u.)"},
      {"sequence": "AGAAAGTCTGACGAGAATTAATACCTTCGTCAAAGCCAGCCGGAGTCACCTAGTGCAG", "binding signal": "38600 fluorescence intensity (a.u.)"},
      {"sequence": "ATTGCCTACATGCCTAGTACTCCCCAGCGAGGTGGAGGTGCGGAGTCACCTAGTGCAG", "binding signal": "4180 fluorescence intensity (a.u.)"},
      {"sequence": "CCCACCAGCACTTTCCAGAGAAACAAACTCCACGTGTGACCGGAGTCACCTAGTGCAG", "binding signal": "8780 fluorescence intensity (a.u.)"},
      {"sequence": "AGAGGCAGTAGAGGTGTGGAGGCCTTGGACAGTTGGATTCCGGAGTCACCTAGTGCAG", "binding signal": "3370 fluorescence intensity (a.u.)"},
      {"sequence": "AGAAAGGGTGATGATGTGGTCACCCTAATATGTGAGGTTCCGGAGTCACCTAGTGCAG", "binding signal": "6700 fluorescence intensity (a.u.)"},
      {"sequence": "AGTGCGGCGGTGGTTGCCGTGGCACTGCCAATGCCCAAAACGGAGTCACCTAGTGCAG", "binding signal": "4060 fluorescence intensity (a.u.)"},
      {"sequence": "ACTACTGTTGATGTGTGTGTTACTATGTAATTCTTGTGTTCGGAGTCACCTAGTGCAG", "binding signal": "5090 fluorescence intensity (a.u.)"},
      {"sequence": "AGTCACGGTAGTTGCTTAACTGGAAAACTATAGGCCCGTACGGAGTCACCTAGTGCAG", "binding signal": "3630 fluorescence intensity (a.u.)"},
      {"sequence": "ACGTGCTGTTGATGGTAACCGCACACGAGTGACGTGGAGACGGAGTCACCTAGTGCAG", "binding signal": "15700 fluorescence intensity (a.u.)"},
      {"sequence": "TGCGTGATCACCTCCTTCATGCAAGGACCTCCGTAAAGTCCGGAGTCACCTAGTGCAG", "binding signal": "3630 fluorescence intensity (a.u.)"},
      {"sequence": "AGTTCCTAATATTTCTCAATGTATATATGTACTCATTCCTCGGAGTCACCTAGTGCAG", "binding signal": "3800 fluorescence intensity (a.u.)"},
      {"sequence": "TATTAGTTAAGTGTGATGCAGGATATATATGATATGCAGACGGAGTCACCTAGTGCAG", "binding signal": "3210 fluorescence intensity (a.u.)"},
      {"sequence": "CCGCGCTCTGCCTCCTTCCTCCCCACAACGGGGAATTTAACGGAGTCACCTAGTGCAG", "binding signal": "19200 fluorescence intensity (a.u.)"},
      {"sequence": "CACACCTGGTGTTGAAATTAGGTTGGCACGTTTACATCATCGGAGTCACCTAGTGCAG", "binding signal": "3530 fluorescence intensity (a.u.)"},
      {"sequence": "TCCCATTCGCCACTGACACGTGGGGCCCTTCATCGATAACCGGAGTCACCTAGTGCAG", "binding signal": "6250 fluorescence intensity (a.u.)"},
      {"sequence": "TCGGGATATTTATGAGCGCTGGTGGAGTGGCGTGGCGAGGCGGAGTCACCTAGTGCAG", "binding signal": "3670 fluorescence intensity (a.u.)"},
      {"sequence": "TGCTAATCTTCCAGCCACACACCTAGTCAGTCATCAAAGTCGGAGTCACCTAGTGCAG", "binding signal": "3430 fluorescence intensity (a.u.)"},
      {"sequence": "TAATGTCACCAAAGTGCCACATCCGCAGACCAAGTCAACACGGAGTCACCTAGTGCAG", "binding signal": "3940 fluorescence intensity (a.u.)"},
      {"sequence": "ATTAAGCCCTCAATCGGCACAGGCGAGGAGTTCTCATCACCGGAGTCACCTAGTGCAG", "binding signal": "12000 fluorescence intensity (a.u.)"},
      {"sequence": "CGTCAGAAGAAGACCAAAAGAAGAGAGAAACATAAGCACACGGAGTCACCTAGTGCAG", "binding signal": "33500 fluorescence intensity (a.u.)"},
      {"sequence": "ATTGTTACATGTAATCAAGGGGTGATGGGCATATTCACAGCGGAGTCACCTAGTGCAG", "binding signal": "3400 fluorescence intensity (a.u.)"},
      {"sequence": "AACAGACCACGGCGGACCATGCCACGCTACGCCGACACCGCGGAGTCACCTAGTGCAG", "binding signal": "5660 fluorescence intensity (a.u.)"},
      {"sequence": "ATGGGGATGTTCAGAGAAATGACATGGATTAACCCATAAACGGAGTCACCTAGTGCAG", "binding signal": "3500 fluorescence intensity (a.u.)"},
      {"sequence": "TACTATGACGTACTGATTCACATAGCCTGAATACGTATGCCGGAGTCACCTAGTGCAG", "binding signal": "3940 fluorescence intensity (a.u.)"},
      {"sequence": "AACCTCCCCACCTCACGCGTCTGCCACTCCGGCGAGATATCGGAGTCACCTAGTGCAG", "binding signal": "3800 fluorescence intensity (a.u.)"},
      {"sequence": "GCCGTCAGTGATGAGTCACCTGTGACGGGTCCTAACTCGCCGGAGTCACCTAGTGCAG", "binding signal": "15200 fluorescence intensity (a.u.)"},
      {"sequence": "GGCCGTCTGCCACGTCATTTTCGCCGCCCTCTCCCAGAGGCGGAGTCACCTAGTGCAG", "binding signal": "16300 fluorescence intensity (a.u.)"},
      {"sequence": "TCCACACCGCCAGCATAAACCATTCCACCGTGACGTAATCCGGAGTCACCTAGTGCAG", "binding signal": "8820 fluorescence intensity (a.u.)"},
      {"sequence": "ACAGCCCCTTTCGGGATCCTACGTGGCGCTGATGTGGCATCGGAGTCACCTAGTGCAG", "binding signal": "29600 fluorescence intensity (a.u.)"},
      {"sequence": "CACATCTCTAAAAGGCCGGCCCGGTCAGGCCCATCTTCAACGGAGTCACCTAGTGCAG", "binding signal": "8250 fluorescence intensity (a.u.)"},
      {"sequence": "GATTACAACGTTGTCGCCACGTGTGTCAGCTCATGTTAAACGGAGTCACCTAGTGCAG", "binding signal": "13300 fluorescence intensity (a.u.)"},
      {"sequence": "AGAGAAGGGGAGAAGAAAAGGGATTGGGCTGACAAGTGGGCGGAGTCACCTAGTGCAG", "binding signal": "3570 fluorescence intensity (a.u.)"},
      {"sequence": "TCTTTCATATTGTCCAAACAAGTCCTTTAAATTTGTCATGCGGAGTCACCTAGTGCAG", "binding signal": "5730 fluorescence intensity (a.u.)"},
      {"sequence": "CCCATCACCCTGCCACCTGCCGACGCTGGCTAGCCTCCTTCGGAGTCACCTAGTGCAG", "binding signal": "4290 fluorescence intensity (a.u.)"},
      {"sequence": "ACTGCGTCTTGCTCGACCGCTACGTCACCTTCCTCGACGACGGAGTCACCTAGTGCAG", "binding signal": "9090 fluorescence intensity (a.u.)"}
    ]}
  ]
}
